Results are given in words; binding and its absence hold for the method and conditions named. Binding seen in cells or lysates may run through a third protein. Here binding means that the protein was enriched with, or labelled near, the bait; the list need not be complete.

Protein sequences, listed by entry. Tags and fused reporters are not part of them.
UniProt Q9BYX4: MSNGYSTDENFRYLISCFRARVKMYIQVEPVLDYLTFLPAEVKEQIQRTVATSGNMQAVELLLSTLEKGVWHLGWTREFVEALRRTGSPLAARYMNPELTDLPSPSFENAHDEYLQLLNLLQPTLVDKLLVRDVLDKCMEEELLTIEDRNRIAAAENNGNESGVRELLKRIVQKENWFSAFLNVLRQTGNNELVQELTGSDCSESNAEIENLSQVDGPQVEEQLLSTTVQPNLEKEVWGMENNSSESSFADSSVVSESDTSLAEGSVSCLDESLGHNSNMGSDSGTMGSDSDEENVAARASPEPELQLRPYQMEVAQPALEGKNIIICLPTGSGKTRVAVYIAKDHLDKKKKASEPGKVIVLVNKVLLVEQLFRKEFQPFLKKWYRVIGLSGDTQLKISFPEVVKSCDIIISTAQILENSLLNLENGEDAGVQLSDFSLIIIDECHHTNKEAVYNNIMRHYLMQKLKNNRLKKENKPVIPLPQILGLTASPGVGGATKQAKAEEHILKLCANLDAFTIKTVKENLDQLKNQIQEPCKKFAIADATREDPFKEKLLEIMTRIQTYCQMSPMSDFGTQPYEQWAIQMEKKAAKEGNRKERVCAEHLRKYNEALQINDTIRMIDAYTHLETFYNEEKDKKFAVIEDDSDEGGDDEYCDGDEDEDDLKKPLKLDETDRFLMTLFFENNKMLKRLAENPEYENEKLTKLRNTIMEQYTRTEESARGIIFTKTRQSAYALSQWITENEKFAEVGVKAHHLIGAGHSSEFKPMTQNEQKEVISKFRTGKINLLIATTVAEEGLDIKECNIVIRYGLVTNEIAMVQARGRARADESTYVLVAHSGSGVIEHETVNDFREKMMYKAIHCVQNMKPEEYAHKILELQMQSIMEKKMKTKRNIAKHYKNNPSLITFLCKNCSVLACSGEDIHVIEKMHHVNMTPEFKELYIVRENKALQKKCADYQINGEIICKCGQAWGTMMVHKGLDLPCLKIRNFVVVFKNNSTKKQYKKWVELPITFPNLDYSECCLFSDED
UniProt P07355: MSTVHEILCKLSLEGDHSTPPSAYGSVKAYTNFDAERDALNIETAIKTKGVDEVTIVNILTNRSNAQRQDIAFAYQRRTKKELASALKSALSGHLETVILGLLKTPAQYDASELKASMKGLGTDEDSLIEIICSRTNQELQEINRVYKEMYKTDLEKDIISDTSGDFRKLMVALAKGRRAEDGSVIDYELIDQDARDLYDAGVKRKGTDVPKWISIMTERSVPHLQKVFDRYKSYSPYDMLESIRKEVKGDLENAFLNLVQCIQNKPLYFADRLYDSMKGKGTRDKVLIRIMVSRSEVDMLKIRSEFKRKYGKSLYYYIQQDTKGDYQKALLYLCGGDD

The target of the test is Melanoma differentiation-associated protein 5 (MDA5), endogenous in THP1 cells (human (endogenous in THP1)) (UniProt Q9BYX4). The test can be described thus: affinity purification with mass spectrometry.

Turning to “Annexin A2 (ANXA2), endogenous in THP1 cells (from UniProt P07355 1-339)”, the binding result is “binds”.

The values are drawn from article doi:10.1101/2025.10.28.684968.
